From doi:10.1101/2020.03.16.993600
No constants are given. Whether binding was seen depends on the method and setting. Binding seen in cells or lysates may run through a third protein. Some results given as binding are weak or reduced against the parent protein; the word gives no strength. For some assays here: Where a sequence is shown, tags or fusion partners need not be part of it.

Chains of the proteins cited; added tags and fusions are not shown. Lines headed by an entry give the natural chain unless they say otherwise; changes in a name come on top. A line that says so, or that is headed by a name, gives the form on record, which may keep a tag or linker.
UniProt Q96PZ2: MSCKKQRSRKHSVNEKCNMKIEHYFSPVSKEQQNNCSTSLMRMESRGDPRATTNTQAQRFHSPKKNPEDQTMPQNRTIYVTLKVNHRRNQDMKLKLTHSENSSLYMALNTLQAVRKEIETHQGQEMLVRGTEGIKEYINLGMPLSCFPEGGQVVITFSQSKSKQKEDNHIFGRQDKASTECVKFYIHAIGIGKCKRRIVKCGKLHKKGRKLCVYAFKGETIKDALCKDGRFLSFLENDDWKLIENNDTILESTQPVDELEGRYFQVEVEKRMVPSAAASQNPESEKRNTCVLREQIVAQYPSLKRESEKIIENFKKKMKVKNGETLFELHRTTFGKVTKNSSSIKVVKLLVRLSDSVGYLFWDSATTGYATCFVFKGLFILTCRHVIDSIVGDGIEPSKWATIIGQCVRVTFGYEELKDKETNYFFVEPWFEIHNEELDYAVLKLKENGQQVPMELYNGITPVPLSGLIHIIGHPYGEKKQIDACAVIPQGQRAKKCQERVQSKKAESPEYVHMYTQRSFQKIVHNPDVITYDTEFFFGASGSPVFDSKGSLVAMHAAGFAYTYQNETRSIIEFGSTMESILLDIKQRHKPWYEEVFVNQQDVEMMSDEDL
GFP-FAM111A *PIP (Q96PZ2, form named): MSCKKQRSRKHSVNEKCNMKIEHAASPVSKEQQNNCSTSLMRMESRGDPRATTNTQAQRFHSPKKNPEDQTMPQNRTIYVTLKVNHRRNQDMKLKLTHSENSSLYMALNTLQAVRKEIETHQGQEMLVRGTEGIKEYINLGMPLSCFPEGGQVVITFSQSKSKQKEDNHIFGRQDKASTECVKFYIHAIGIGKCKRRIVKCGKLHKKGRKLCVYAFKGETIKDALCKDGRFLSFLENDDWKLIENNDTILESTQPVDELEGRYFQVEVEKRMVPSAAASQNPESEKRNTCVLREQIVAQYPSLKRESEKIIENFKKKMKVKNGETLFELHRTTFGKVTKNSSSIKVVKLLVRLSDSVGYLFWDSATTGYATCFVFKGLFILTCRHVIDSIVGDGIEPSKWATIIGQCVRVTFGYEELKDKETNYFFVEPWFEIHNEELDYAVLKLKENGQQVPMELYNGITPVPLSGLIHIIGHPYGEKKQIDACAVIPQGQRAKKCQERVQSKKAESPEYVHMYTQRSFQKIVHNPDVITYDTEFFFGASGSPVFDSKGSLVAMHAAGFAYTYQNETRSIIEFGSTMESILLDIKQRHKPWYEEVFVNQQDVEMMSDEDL

T1: FLAG-tagged RFC1 (human) (UniProt P35251)
T1 sequence: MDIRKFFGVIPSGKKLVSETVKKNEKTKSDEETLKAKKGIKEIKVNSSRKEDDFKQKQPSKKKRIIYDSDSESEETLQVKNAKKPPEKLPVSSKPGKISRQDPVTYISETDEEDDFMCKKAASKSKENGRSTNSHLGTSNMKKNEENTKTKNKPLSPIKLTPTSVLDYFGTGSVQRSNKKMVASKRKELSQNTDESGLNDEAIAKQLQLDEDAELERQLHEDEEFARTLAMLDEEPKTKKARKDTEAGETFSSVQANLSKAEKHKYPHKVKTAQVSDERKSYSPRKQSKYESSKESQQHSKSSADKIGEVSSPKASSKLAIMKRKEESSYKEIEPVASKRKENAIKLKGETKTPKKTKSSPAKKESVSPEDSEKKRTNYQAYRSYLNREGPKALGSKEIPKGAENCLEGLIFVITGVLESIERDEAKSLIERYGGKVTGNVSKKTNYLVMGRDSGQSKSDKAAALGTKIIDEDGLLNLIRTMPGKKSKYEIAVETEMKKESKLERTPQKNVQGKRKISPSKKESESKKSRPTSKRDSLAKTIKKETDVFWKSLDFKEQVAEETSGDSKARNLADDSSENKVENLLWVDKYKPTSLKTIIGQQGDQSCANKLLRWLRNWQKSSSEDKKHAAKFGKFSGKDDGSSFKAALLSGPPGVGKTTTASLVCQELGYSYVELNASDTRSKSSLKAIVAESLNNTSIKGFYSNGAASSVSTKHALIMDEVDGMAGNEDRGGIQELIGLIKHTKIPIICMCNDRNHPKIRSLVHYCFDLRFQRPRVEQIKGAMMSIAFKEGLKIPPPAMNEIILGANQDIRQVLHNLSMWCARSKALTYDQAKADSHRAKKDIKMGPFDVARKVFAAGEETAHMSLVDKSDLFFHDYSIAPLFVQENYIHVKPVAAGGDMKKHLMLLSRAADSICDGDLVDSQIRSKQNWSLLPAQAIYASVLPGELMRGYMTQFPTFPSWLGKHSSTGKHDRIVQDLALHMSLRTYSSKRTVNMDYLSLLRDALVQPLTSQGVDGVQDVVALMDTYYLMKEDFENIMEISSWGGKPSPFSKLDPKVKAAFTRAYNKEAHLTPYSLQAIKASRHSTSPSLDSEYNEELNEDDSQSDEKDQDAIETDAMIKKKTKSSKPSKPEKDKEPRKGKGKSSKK

T2: RFC1 (endogenous) (human (endogenous in U2OS)) (UniProt P35251)
T2 sequence: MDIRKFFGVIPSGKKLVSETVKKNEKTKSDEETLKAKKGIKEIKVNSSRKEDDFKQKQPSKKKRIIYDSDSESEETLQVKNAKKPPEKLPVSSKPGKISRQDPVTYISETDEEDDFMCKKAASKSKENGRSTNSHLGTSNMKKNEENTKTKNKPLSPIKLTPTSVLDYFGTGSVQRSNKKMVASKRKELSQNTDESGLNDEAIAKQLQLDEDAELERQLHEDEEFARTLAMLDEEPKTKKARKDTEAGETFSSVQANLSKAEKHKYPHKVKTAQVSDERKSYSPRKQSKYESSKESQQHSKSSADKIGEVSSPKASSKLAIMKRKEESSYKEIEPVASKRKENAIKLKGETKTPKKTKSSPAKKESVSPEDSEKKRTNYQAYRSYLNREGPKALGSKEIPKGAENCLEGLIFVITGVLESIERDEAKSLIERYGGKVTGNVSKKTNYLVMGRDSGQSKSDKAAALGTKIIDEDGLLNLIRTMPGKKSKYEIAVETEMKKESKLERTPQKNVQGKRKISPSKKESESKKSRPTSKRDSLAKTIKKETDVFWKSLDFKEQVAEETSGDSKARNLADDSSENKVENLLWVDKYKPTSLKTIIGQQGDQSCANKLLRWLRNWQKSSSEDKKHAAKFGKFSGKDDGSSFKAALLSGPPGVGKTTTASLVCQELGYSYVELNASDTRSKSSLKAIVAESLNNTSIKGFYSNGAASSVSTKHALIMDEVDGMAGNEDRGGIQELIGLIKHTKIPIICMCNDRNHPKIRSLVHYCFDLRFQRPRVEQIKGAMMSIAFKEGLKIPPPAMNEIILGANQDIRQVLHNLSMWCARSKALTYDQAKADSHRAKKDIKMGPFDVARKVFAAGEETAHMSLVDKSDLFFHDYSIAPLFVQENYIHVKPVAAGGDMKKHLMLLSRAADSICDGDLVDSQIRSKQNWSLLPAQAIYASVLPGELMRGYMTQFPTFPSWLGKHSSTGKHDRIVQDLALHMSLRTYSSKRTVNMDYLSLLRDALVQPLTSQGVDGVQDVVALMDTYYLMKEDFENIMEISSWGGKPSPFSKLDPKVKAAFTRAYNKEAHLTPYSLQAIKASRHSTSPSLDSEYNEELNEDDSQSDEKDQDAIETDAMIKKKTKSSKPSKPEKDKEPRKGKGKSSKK

T3: GFP-FAM111B WT (human) (UniProt Q6SJ93)
T3 sequence: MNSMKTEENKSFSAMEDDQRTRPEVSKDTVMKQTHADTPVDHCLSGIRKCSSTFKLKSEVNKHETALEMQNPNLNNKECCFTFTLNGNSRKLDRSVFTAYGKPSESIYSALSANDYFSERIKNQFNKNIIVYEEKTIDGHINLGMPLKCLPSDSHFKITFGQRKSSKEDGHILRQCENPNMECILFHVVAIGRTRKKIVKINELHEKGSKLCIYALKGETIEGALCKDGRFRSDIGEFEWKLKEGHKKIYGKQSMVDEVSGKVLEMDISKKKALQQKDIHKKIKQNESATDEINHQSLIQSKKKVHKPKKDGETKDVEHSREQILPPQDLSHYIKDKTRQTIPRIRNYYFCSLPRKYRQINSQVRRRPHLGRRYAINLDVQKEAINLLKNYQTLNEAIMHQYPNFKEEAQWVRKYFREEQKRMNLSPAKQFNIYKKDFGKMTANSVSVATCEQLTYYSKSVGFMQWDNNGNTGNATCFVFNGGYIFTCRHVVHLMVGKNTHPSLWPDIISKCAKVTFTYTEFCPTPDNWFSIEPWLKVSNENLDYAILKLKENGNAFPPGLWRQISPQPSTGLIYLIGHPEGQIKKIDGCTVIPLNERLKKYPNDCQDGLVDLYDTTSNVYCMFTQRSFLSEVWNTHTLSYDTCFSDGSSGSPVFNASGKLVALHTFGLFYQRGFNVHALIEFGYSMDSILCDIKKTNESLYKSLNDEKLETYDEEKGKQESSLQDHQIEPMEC


Assays:
Test in all cases: co-IP
FLAG-tagged RFC1 (human) = target: T1, FLAG-tagged RFC1 (human)
[1] = target: T2, RFC1 (endogenous) (human (endogenous in U2OS))
GFP-FAM111B WT (human) = target: T3, GFP-FAM111B WT (human)
GFP-FAM111A WT (human) = GFP-FAM111A WT (human) (UniProt Q96PZ2)

binding (FLAG-tagged RFC1 (human))	binding [1]	binding (GFP-FAM111B WT (human))	binding (GFP-FAM111A WT (human))	Molecule
binds	binds	binds		FAM111A (endogenous) (from UniProt Q96PZ2 1-611) (enzyme)
	binds			GFP-FAM111A *PIP (from UniProt Q96PZ2 1-611) (enzyme)
			binds	FAM111B (endogenous) (enzyme, UniProt Q6SJ93 1-734) MNSMKTEENKSFSAMEDDQRTRPEVSKDTVMKQTHADTPVDHCLSGIRKCSSTFKLKSEVNKHETALEMQNPNLNNKECCFTFTLNGNSRKLDRSVFTAYGKPSESIYSALSANDYFSERIKNQFNKNIIVYEEKTIDGHINLGMPLKCLPSDSHFKITFGQRKSSKEDGHILRQCENPNMECILFHVVAIGRTRKKIVKINELHEKGSKLCIYALKGETIEGALCKDGRFRSDIGEFEWKLKEGHKKIYGKQSMVDEVSGKVLEMDISKKKALQQKDIHKKIKQNESATDEINHQSLIQSKKKVHKPKKDGETKDVEHSREQILPPQDLSHYIKDKTRQTIPRIRNYYFCSLPRKYRQINSQVRRRPHLGRRYAINLDVQKEAINLLKNYQTLNEAIMHQYPNFKEEAQWVRKYFREEQKRMNLSPAKQFNIYKKDFGKMTANSVSVATCEQLTYYSKSVGFMQWDNNGNTGNATCFVFNGGYIFTCRHVVHLMVGKNTHPSLWPDIISKCAKVTFTYTEFCPTPDNWFSIEPWLKVSNENLDYAILKLKENGNAFPPGLWRQISPQPSTGLIYLIGHPEGQIKKIDGCTVIPLNERLKKYPNDCQDGLVDLYDTTSNVYCMFTQRSFLSEVWNTHTLSYDTCFSDGSSGSPVFNASGKLVALHTFGLFYQRGFNVHALIEFGYSMDSILCDIKKTNESLYKSLNDEKLETYDEEKGKQESSLQDHQIEPMEC
